Experimental findings from US20260266848A1, “COMPOSITIONS AND METHODS FOR DIAGNOSING AND TREATING DYSTONIA” (Duke University, priority 2023, published 2026) are described below.

Type in all cases: cell-based, mouse
In series [1] the test system is DYT-TOR1A MEF EVs. Put plainly: Quantitative LC-MS/MS proteomics of EVs from drug-treated DYT-TOR1A MEF cultures (ritonavir, salubrinal). The following applies: for DYT1/DYT1 + RTV: Directionality of protein change in MEFs EV dataset in DYT1 derived MEFs treated with Ritonavir; for RTV Corrective Direction: Ritonavir; for RTV Corrective Direction / Sal Corrective Direction: was treatment in MEF's in the direction of WT-like?; for Sal Corrective Direction: Salubrinal; for DYT1/DYT1 + Sal: Directionality of protein change in MEFs EV dataset in DYT1 derived MEFs treated with salubrinal.

For series [2], the system named is DYT-TOR1A MEF EVs. Put plainly: Quantitative LC-MS/MS proteomics of MEF EVs, DYT-TOR1A genotype vs WT. The conditions noted are these: Directionality of protein change in MEFs EV dataset between WT and DYT1 derived MEFs.
For a further series, the system named is WT MEF EVs. Put plainly: Quantitative LC-MS/MS proteomics of EVs from ISRIB-treated WT MEF cultures. The following applies: Directionality of protein change in MEFs EV dataset in WT derived MEFs treated with ISRIB.

B1: Ano6 (protein, UniProt Q4KMQ2 1-910, looked up)
Anoctamin-6: MKKMSRNVLLQMEEEEDDDDGDIVLENLGQTIVPDLGSLESQHDFRTPEFEEFNGKPDSLFFNDGQRRIDFVLVYEDESRKETNKKGTNEKQRRKRQAYESNLICHGLQLEATRSVLDDKLVFVKVHAPWEVLCTYAEIMHIKLPLKPNDLKNRSSAFGTLNWFTKVLSVDESIIKPEQEFFTAPFEKNRMNDFYIVDRDAFFNPATRSRIVYFILSRVKYQVINNVSKFGINRLVNSGIYKAAFPLHDCKFRRQSEDPSCPNERYLLYREWAHPRSIYKKQPLDLIRKYYGEKIGIYFAWLGYYTQMLLLAAVVGVACFLYGYLNQDNCTWSKEVCHPDIGGKIIMCPQCDRLCPFWKLNITCESSKKLCIFDSFGTLVFAVFMGVWVTLFLEFWKRRQAELEYEWDTVELQQEEQARPEYEARCTHVVINEITQEEERIPFTAWGKCIRITLCASAVFFWILLIIASVIGIIVYRLSVFIVFSAKLPKNINGTDPIQKYLTPQTATSITASIISFIIIMILNTIYEKVAIMITNFELPRTQTDYENSLTMKMFLFQFVNYYSSCFYIAFFKGKFVGYPGDPVYWLGKYRNEECDPGGCLLELTTQLTIIMGGKAIWNNIQEVLLPWIMNLIGRFHRVSGSEKITPRWEQDYHLQPMGKLGLFYEYLEMIIQFGFVTLFVASFPLAPLLALVNNILEIRVDAWKLTTQFRRLVPEKAQDIGAWQPIMQGIAILAVVTNAMIIAFTSDMIPRLVYYWSFSVPPYGDHTSYTMEGYINNTLSIFKVADFKNKSKGNPYSDLGNHTTCRYRDFRYPPGHPQEYKHNIYYWHVIAAKLAFIIVMEHVIYSVKFFISYAIPDVSKRTKSKIQREKYLTQKLLHENHLKDMTKNMGVIAERMIEAVDNNLRPKSE
B1: in the series on DYT-TOR1A MEF EVs [1], the “DYT1/DYT1 + RTV” value is on record as “DOWN”, the “RTV Corrective Direction” value is listed as “No” and the “Sal Corrective Direction” value is on record as “Yes”.

B2: Tubb1 (protein, UniProt A2AQ07 1-451, looked up)
Tubulin beta-1 chain: MREIVHIQIGQCGNQIGAKFWEVIGEEHGIDCAGSYCGTSALQLERISVYYNEAYGKKYVPRAVLVDLEPGTMDSIRSSRLGVLFQPDSFVHGNSGAGNNWAKGHYTEGAELIENVMDVVRRESESCDCLQGFQIVHSLGGGTGSGMGTLLMNKIREEYPDRILNSFSVMPSPKVSDTVVEPYNAVLSIHQLIENTDACFCIDNEALYDICFRTLRLTTPTYGDLNHLVSLTMSGITTSLRFPGQLNADLRKLAVNMVPFPRLHFFMPGFAPLTAQGSQQYRALSVAELTQQMFDARNIMAACDPRRGRYLTVACIFRGKMSTKEVDQQLLSIQTRNSNCFVEWIPNNVKVAVCDIPPRGLNMAATFLGNNTAIQELFTRVSEHFSAMFRRRAFVHWYTSEGMDISEFGEAESDIHDLVSEYQQFQDVRAGLEDSEEDVEEAEVEAEDKDH
On to B2, for which the DYT1/WT result in the series with DYT-TOR1A MEF EVs [2] is reported as “DOWN”. Also, in the series on DYT-TOR1A MEF EVs [1], the “RTV Corrective Direction” value is on record as “No” and the “Sal Corrective Direction” value was “No”.

B3: Cryab (protein, UniProt P23927 1-175, looked up)
Alpha-crystallin B chain: MDIAIHHPWIRRPFFPFHSPSRLFDQFFGEHLLESDLFSTATSLSPFYLRPPSFLRAPSWIDTGLSEMRLEKDRFSVNLDVKHFSPEELKVKVLGDVIEVHGKHEERQDEHGFISREFHRKYRIPADVDPLTITSSLSSDGVLTVNGPRKQVSGPERTIPITREEKPAVAAAPKK
B3: in the series on DYT-TOR1A MEF EVs [2], the DYT1/WT entry was “DOWN”. Further, in the series on DYT-TOR1A MEF EVs [1], the “DYT1/DYT1 + RTV” value is recorded as “DOWN”, the “DYT1/DYT1 + Sal” value is given as “DOWN”, the “RTV Corrective Direction” value is recorded as “Yes” and the “Sal Corrective Direction” value was “Yes”.

B4: Lrrc59 (protein, UniProt Q922Q8 1-307, looked up)
Leucine-rich …: MTKAGSKGGNLRDKLDGNELDLSLSDLNEVPVKELAALPKATVLDLSCNKLSTLPSDFCGLTHLVKLDLSKNKLQQLPADFGRLVNLQHLDLLNNRLVTLPVSFAQLKNLKWLDLKDNPLDPVLAKVAGDCLDEKQCKQCANKVLQHMKAVQADQERERQRRLEVEREAEKKREAKQQAKEAKERELRKREKAEEKERRRKEYDAQKASKREQEKKPKKEANQAPKSKSGSRPRKPPPRKHTRSWAVLKVLLLLLLLCVAGGLVVCRVTGLHQQPLCTSVNTIYDNAVQGLRHHEILQWVLQTDSQQ
Consider B4, for which the DYT1/WT result with DYT-TOR1A MEF EVs [2] is “DOWN”. Moreover, in the series with DYT-TOR1A MEF EVs [1], the “DYT1/DYT1 + RTV” value is reported as “DOWN”, the “RTV Corrective Direction” value is on record as “Yes” and the “Sal Corrective Direction” value is recorded as “No”.

B5: Pitpnb (protein, UniProt P53811 1-271, looked up)
Phosphatidylinositol transfer …: MVLIKEFRVVLPCSVQEYQVGQLYSVAEASKNETGGGEGIEVLKNEPYENDGEKGQYTHKIYHLKSKVPAFVRMIAPEGSLVFHEKAWNAYPYCRTIVTNEYMKDDFFIKIETWHKPDLGTLENVHGLDPNTWKTVEIVHIDIADRSQVEPADYKADEDPALFHSVKTKRGPLGPNWKKELANTPDCPRMCAYKLVTIKFKWWGLQSKVENFIQKQEKRIFTNLHRQLFCWIDKWIDLTMEDIRRMEDETQKELETMRKKGSVRGTSAADA
On to B5, for which, in the series with DYT-TOR1A MEF EVs [1], the “DYT1/DYT1 + RTV” value was “DOWN”, the “DYT1/DYT1 + Sal” value is “DOWN”, the “RTV Corrective Direction” value is reported as “No” and the “Sal Corrective Direction” value is listed as “No”.

B6: Stom (protein, UniProt P54116 1-284, looked up)
Stomatin: MSDKRQSSHVQSQRIPESFRENSKTELGACGWILVAASFFFVIITFPISIWICIKIVKEYERVIIFRLGRILQGGAKGPGLFFILPCTDSLIKVDMRTISFDIPPQEVLTKDSVTISVDGVVYYRVQNATLAVANITNADSATRLLAQTTLRNALGTKNLSQILSDREEIAHHMQSTLDDATDDWGIKVERVEIKDVKLPVQLQRAMAAEAEAAREARAKVIAAEGEMNASRALKEASMVITESPAALQLRYLQTLTTIAAEKNSTIVFPLPVDMLQGIMGSNH
Take B6: in the series with DYT-TOR1A MEF EVs [2], the DYT1/WT entry is “DOWN”. In addition, in the series on DYT-TOR1A MEF EVs [1], the “DYT1/DYT1 + RTV” value was “DOWN”, the “DYT1/DYT1 + Sal” value is recorded as “DOWN”, the “RTV Corrective Direction” value is on record as “Yes” and the “Sal Corrective Direction” value was “Yes”.

B7: Rbm3 (protein, UniProt O89086 1-153, looked up)
RNA-binding protein 3: MSSEEGKLFVGGLNFNTDEQALEDHFSSFGPISEVVVVKDRETQRSRGFGFITFTNPEHASDAMRAMNGESLDGRQIRVDHAGKSARGSRGGAFGGRGRSYSRGGGDQGYGSGRYDSRPGGYGYGYGRSRDYSGSQGGYDRYSGGNYRDNYDN
On to B7, for which, in the series on DYT-TOR1A MEF EVs [2], the DYT1/WT entry is reported as “DOWN”. In addition, in the series with DYT-TOR1A MEF EVs [1], the “DYT1/DYT1 + Sal” value was “DOWN”, the “RTV Corrective Direction” value was “No” and the “Sal Corrective Direction” value is given as “Yes”.

B8: Prpsap2 (protein, UniProt O60256 1-369, looked up)
Phosphoribosyl pyrophosphate …: MFCVTPPELETKMNITKGGLVLFSANSNSSCMELSKKIAERLGVEMGKVQVYQEPNRETRVQIQESVRGKDVFIIQTVSKDVNTTIMELLIMVYACKTSCAKSIIGVIPYFPYSKQCKMRKRGSIVSKLLASMMCKAGLTHLITMDLHQKEIQGFFNIPVDNLRASPFLLQYIQEEIPDYRNAVIVAKSPASAKRAQSFAERLRLGIAVIHGEAQDAESDLVDGRHSPPMVRSVAAIHPSLEIPMLIPKEKPPITVVGDVGGRIAIIVDDIIDDVDSFLAAAETLKERGAYKIFVMATHGLLSSDAPRRIEESAIDEVVVTNTIPHEVQKLQCPKIKTVDISMILSEAIRRIHNGESMSYLFRNIGLDD
For B8, in the series on DYT-TOR1A MEF EVs [1], the “RTV Corrective Direction” value is recorded as “Yes” and the “Sal Corrective Direction” value was “Yes”. In addition, the “WT + ISRIB/WT” value with WT MEF EVs is listed as “DOWN”.

B9: DIst (protein, UniProt Q9D2G2 69-454, looked up)
Dihydrolipoyllysine-residue …: NDVITVQTPAFAESVTEGDVRWEKAVGDAVAEDEVVCEIETDKTSVQVPSPANGIIEALLVPDGGKVEGGTPLFTLRKTGAAPAKAKPAETPAPAHKAEPAAPAAPPPPAAPVLTQMPPVPSPSQPPSSKPVSAIKPTAAPPLAEAGAAKGLRSEHREKMNRMRQRIAQRLKEAQNTCAMLTTFNEVDMSNIQEMRARHKDAFLKKHNLKLGFMSAFVKASAFALQEQPVVNAVIDDATKEVVYRDYIDISVAVATPRGLVVPVIRNVETMNYADIERTINELGEKARKNELAIEDMDGGTFTISNGGVFGSLFGTPIINPPQSAILGMHAIFDRPVAVGGKVEVRPMMYVALTYDHRLIDGREAVTFLRKIKAAVEDPRVLLLDL
Turning to B9, in the series on DYT-TOR1A MEF EVs [1], the “RTV Corrective Direction” value is on record as “Yes” and the “Sal Corrective Direction” value was “Yes”. In the series with WT MEF EVs, the “WT + ISRIB/WT” value is “DOWN”.
